Measurements reported in PubChem BioAssay AID652243 (Drosophila RNAi Screening Center, 2013).
In all, the deposit lists about 24,000 reagents; below is a random part of those that have a named target and a result. In the full data, 246 (1%) are marked active. 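Plates not normalised; calls are printed but the firefly/Renilla ratio behind them is not deposited; fold cut for lowering reported inconsistently.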 Raw values are not corrected between plates. Reagents against one gene are numbered here. Names joined by + are all predicted targets of the reagent. No sequences are given here. The record does not give: the amount of reagent.

- Aim: 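Fly regulators of androgen-dependent reporter output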 (primary screen)
- System: Drosophila S2R+ cells
- Reagent: long dsRNA against Drosophila genes
- Time to read-out: 72 h (48 h, then 24 h hormone)
- Treatment: synthetic androgen R1881 at 10 nM for 24 h
- Measurement: 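Per-well raw luminescence of the androgen-driven firefly reporter and of the Renilla control, two replicates each, without normalisation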
- Direction: firefly reporter light: higher = more light from androgen-responsive reporter; Renilla control light: higher = more constitutive control signal (cell number, transfection)
- Active means: 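Hit when the log firefly-to-Renilla ratio dropped or increased by a fixed fold versus the mean of GFP or LacZ controls across duplicate plates; lowering cut given as 1.5 and as 3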
- Calls: active = hit: reporter lowered or raised; inactive = no hit

no.	predicted target	reagent no.	firefly reporter light, replicate 1	firefly reporter light, replicate 2	Renilla control light, replicate 1	Renilla control light, replicate 2	outcome
1	Nnk	1	54201	69357	1.06e6	1.14e6	inactive
2	Nnk	2	6.37e5	5.76e5	6.22e5	7.37e5	inactive
3	Hinfp	1	2.38e5	2.31e5	2.79e6	2.19e6	inactive
4	Hinfp	2	7.07e5	6.01e5	8.07e5	7.67e5	inactive
5	CG7655	1	49076	1.41e5	6.82e5	7.50e5	inactive
6	Or35a	1	1.81e5	1.84e5	1.59e6	1.39e6	inactive
7	Fbxl4	1	96172	74774	6.60e5	6.26e5	inactive
8	cal1	1	1.12e5	85000	6.97e5	6.32e5	inactive
9	Rilpl	1	1.31e5	1.22e5	1.19e6	8.87e5	inactive
10	CG15725	1	5.35e5	6.26e5	2.28e6	3.19e6	inactive
11	lncRNA:CR33987	1	5.21e5	3.78e5	7.67e5	8.27e5	inactive
12	exu	1	8.89e5	7.81e5	1.53e6	1.36e6	inactive
13	CadN2	1	1.68e5	1.97e5	2.62e6	3.36e6	inactive
14	CadN2	2	2.53e5	2.62e5	2.59e6	2.90e6	inactive
15	CadN2	3	2.21e5	2.31e5	2.43e6	2.25e6	inactive
16	verm	1	43296	31871	4.85e5	3.06e5	inactive
17	verm	2	6.72e5	8.73e5	6.40e5	9.31e5	inactive
18	CG13064	1	3.28e5	2.50e5	2.76e6	2.60e6	inactive
19	Cpsf73	1	3.55e5	2.70e5	4.75e6	3.21e6	inactive
20	Cpsf73	2	8.21e5	8.26e5	2.23e6	2.00e6	inactive
21	CG12994	1	4.70e5	4.61e5	2.98e6	2.85e6	inactive
22	Obp56h	1	97273	1.21e5	1.47e6	1.31e6	inactive
23	Obp56h	2	4.22e5	4.61e5	3.91e5	4.75e5	inactive
24	nwk	1	1.06e6	8.38e5	1.72e6	1.27e6	inactive
25	nwk	2	1.47e5	75261	2.32e6	9.66e5	inactive
26	nwk	3	6.62e5	6.75e5	6.49e5	8.70e5	inactive
27	Atg3	1	4.71e5	3.72e5	3.32e6	3.03e6	inactive
28	Atg3	2	4.75e5	4.32e5	3.74e6	4.18e6	inactive
29	Atg3	3	8.02e5	6.63e5	1.45e6	1.09e6	inactive
30	E(bx)	1	1.31e5	1.86e5	9.17e5	1.05e6	inactive
31	E(bx)	2	99301	97914	4.77e5	6.51e5	inactive
32	E(bx)	3	1.11e6	1.14e6	5.89e5	5.26e5	inactive
33	CG31797	1	1.28e5	91976	8.58e5	6.05e5	inactive
34	CG31797	2	1.73e5	1.63e5	1.92e6	1.93e6	inactive
35	CG17221	1	1.31e5	1.03e5	6.88e5	8.43e5	inactive
36	CG17221	2	2.39e5	2.59e5	6.33e5	8.26e5	inactive
37	mAChR-B	1	1.03e5	54439	1.94e6	1.37e6	inactive
38	mAChR-B	2	3.02e5	3.50e5	3.92e5	4.17e5	inactive
39	CG12009	1	6.19e5	6.05e5	1.31e6	9.25e5	inactive
40	CG12009	2	3.37e5	2.48e5	7.10e5	4.88e5	inactive
41	Hcf	1	1.27e5	1.41e5	1.15e6	6.92e5	inactive
42	CG14100	1	1.73e5	1.39e5	1.68e6	1.88e6	inactive
43	rdo	1	2.16e5	2.35e5	6.49e5	9.62e5	inactive
44	rdo	2	5.72e5	4.18e5	4.79e5	4.58e5	inactive
45	Acbp2	1	2.90e5	2.44e5	4.02e6	3.42e6	inactive
46	Acbp2	2	4.69e5	2.29e5	3.28e5	3.38e5	inactive
47	e(r)	1	1.16e5	1.33e5	9.99e5	1.11e6	inactive
48	sinah	1	3.86e5	3.04e5	3.32e6	2.92e6	inactive
49	sinah	2	7.32e5	6.00e5	2.55e6	1.85e6	inactive
50	CG9948	1	7.01e5	6.11e5	1.23e6	1.44e6	inactive
51	Got1	1	4.82e5	6.30e5	5.16e5	4.52e5	inactive
52	Got1	2	2.27e5	3.50e5	5.35e5	6.20e5	inactive
53	Tsp42Ei	1	3.85e5	4.08e5	2.59e6	2.50e6	inactive
54	Tsp42Ei	2	4.02e5	3.05e5	8.19e5	7.03e5	inactive
55	Drsl2	1	1.53e5	1.70e5	1.85e6	2.85e6	inactive
56	Drsl2	2	5.92e5	5.77e5	6.52e5	5.49e5	inactive
57	CG1113	1	34083	41512	1.32e6	9.39e5	inactive
58	Prosalpha2	1	1.34e5	99762	2.22e6	8.94e5	inactive
59	Prosalpha2	2	3.64e5	4.31e5	4.96e5	6.45e5	inactive
60	Synj	1	8.27e5	6.83e5	1.56e6	9.70e5	inactive
61	Synj	2					inactive
62	Synj	3					inactive
63	Or74a	1	2.07e5	2.04e5	1.59e6	1.34e6	inactive
64	GABA-B-R3	1	82463	53058	6.55e5	5.76e5	inactive
65	GABA-B-R3	2	5.09e5	6.22e5	1.01e6	1.01e6	inactive
66	ppk11	1	2.03e5	1.54e5	9.74e5	7.32e5	inactive
67	ste24a	1	7.99e5	9.24e5	1.56e6	1.18e6	inactive
68	ste24a	2	1.20e5	73940	2.03e5	1.65e5	inactive
69	CG17819	1	2.58e5	2.55e5	2.97e6	3.67e6	inactive
70	CG7420	1	1.03e6	1.11e6	2.33e6	1.70e6	inactive
71	CG42518 + MED9	1	1.13e6	8.43e5	1.20e6	1.06e6	inactive
72	CG7182	1	9.67e5	1.34e6	1.14e6	1.38e6	inactive
73	CG7182	2	8.82e5	8.51e5	8.87e5	1.33e6	inactive
74	PIP5K59B	1	7.46e5	2.60e5	1.11e6	8.81e5	inactive
75	PIP5K59B	2	5.24e5	4.50e5	2.17e6	1.89e6	inactive
76	PIP5K59B	3					inactive
77	PIP5K59B	4					inactive

Quoted from the entries so far for reference:
no.	predicted target	reagent no.	firefly reporter light, replicate 1	firefly reporter light, replicate 2	Renilla control light, replicate 1	Renilla control light, replicate 2	outcome
11	lncRNA:CR33987	1	5.21e5	3.78e5	7.67e5	8.27e5	inactive
12	exu	1	8.89e5	7.81e5	1.53e6	1.36e6	inactive
13	CadN2	1	1.68e5	1.97e5	2.62e6	3.36e6	inactive
